Data on 1 substance can be found in article PMC11065752.

Sequences of proteins named here, by UniProt entry; tags and fusion partners are left off.
UniProt Q08J23: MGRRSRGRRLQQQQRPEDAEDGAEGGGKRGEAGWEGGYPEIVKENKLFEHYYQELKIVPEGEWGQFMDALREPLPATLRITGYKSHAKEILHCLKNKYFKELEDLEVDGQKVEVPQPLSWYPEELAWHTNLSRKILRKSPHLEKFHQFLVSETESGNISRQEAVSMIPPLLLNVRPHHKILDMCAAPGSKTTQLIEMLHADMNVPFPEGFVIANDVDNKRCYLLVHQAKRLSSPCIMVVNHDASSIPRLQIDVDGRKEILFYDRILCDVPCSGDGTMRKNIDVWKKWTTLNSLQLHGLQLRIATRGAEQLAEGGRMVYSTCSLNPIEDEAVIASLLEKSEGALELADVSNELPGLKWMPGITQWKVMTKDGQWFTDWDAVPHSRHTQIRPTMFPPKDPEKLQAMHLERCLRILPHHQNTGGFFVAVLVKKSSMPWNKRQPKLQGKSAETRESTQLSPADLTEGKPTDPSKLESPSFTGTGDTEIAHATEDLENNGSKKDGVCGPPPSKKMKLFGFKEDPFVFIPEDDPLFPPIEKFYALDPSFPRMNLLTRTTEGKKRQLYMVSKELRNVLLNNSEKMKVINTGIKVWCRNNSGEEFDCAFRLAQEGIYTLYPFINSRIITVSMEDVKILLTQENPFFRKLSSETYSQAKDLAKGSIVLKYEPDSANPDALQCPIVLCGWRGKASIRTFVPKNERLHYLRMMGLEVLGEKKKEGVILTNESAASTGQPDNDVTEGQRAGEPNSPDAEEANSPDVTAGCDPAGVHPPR
UniProt P67809: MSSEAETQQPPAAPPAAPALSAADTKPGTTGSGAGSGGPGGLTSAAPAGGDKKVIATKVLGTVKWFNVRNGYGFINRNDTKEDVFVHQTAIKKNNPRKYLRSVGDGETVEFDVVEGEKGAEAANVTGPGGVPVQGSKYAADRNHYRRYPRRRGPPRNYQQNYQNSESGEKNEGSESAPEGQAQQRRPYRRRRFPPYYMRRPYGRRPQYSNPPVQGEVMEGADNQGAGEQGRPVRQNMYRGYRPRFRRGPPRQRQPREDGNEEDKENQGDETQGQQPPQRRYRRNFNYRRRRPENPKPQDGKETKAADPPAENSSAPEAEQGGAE

These are yes or no findings as the source states them, for the method shown. In cells and extracts the contact can be indirect. These calls come from enrichment with a bait or labelling near it, and not all partners need be listed.

The target of this assay is NOP2/Sun RNA methyltransferase family member 2 (NSUN2), flag-tagged (UniProt Q08J23). Description: affinity purification with mass spectrometry; flag-tagged NSUN2 overexpressed in H1299 cells; flag affinity purification; silver staining; liquid chromatography-mass spectrometry of the immunoprecipitated proteins.

Consider YBX1 (from UniProt P67809 1-324), for which the binding result is recorded as “binds”.
